This note sets out measurements from PubChem BioAssay AID2685 (National Center for Advancing Translational Sciences (NCATS), 2010).

Each structure is given as a SMILES string. The list shows a part of the results. The main result of the screen is listed elsewhere. These columns were measured beside it and carry no call. The list favours compounds with an active or inconclusive main result. Potencies come from curve fits of mixed quality, noted in brackets.

This test in a line: qHTS Assay for Lipid Storage Modulators in Drosophila S3 Cells.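 As to cell number change: cells counted by Cell Tracker Red CMTPX staining in the red channel.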 The settings on record: BODIPY lipid droplet fluorescence, 18-24 h; for cell number change: measured here: cell count max response, cells fed with added oleic acid. Put shortly: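 Drosophila S3 cells got compounds at several concentrations plus oleic acid (400 uM solution). Laser-scanning cytometry with 488 nm excitation read lipid droplets at 500-530 nm and cells at 575-640 nm. Percent activity was relative to 20 uM Triacsin C.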
(In general: In qHTS, concentration-response curves come from the screen itself.)

Setting [1] is: measured here: cell number channel AC50, cells fed with added oleic acid.
[2] abbreviates: measured here: lipid fluorescence (Fed channel) AC50, cells fed with added oleic acid.

For the compound `O=C(CCCn1c(=O)[nH]c2cc(Cl)ccc2c1=O)NCCCN1CCCC1`, the cell number change was -84.5%. In addition, under setting [1], the AC50 was 29.1 µM [falling, single point].

As to `CCCC/C(O)=C1\C(=O)CCCC1=NCCc1c(C)[nH]c2ccccc12`, under setting [2], the AC50 was 1.46 µM [rising, partial curve].

Turning to `O=C(NCc1ccco1)c1ccc(Cl)c(S(=O)(=O)Nc2ccccc2)c1`, the cell number change is -30.3%. For the same compound, the AC50 under setting [1] was 16.4 µM [falling, partial curve].

As for `Cc1cc(-c2n[nH]c(=S)n2/N=C/c2sccc2C)n[nH]1`, the cell number change was -18.9%. Moreover, the AC50 under setting [1] was 0.13 µM [rising, full curve, poor fit]. The AC50 under setting [2] was 23.1 µM [falling, partial curve, poor fit].

Regarding `O=C(C1=C[C@H](c2coc3ccccc3c2=O)C[C@H](OCCCCO)O1)N1CCN(Cc2ccccc2)CC1`, the cell number change was determined as 15%. Further, the AC50 under setting [2] was 2.59 µM [rising, full curve].

Take `O=C(CSCc1ccc(F)cc1)N1CCN(c2ccc(F)cc2)CC1`: the cell number change is -33.7%. Further, the concentration at half-maximal activity (AC50) under setting [1] is 29.1 µM [falling, single point].

As to `C/C(=N\N=C1\NC(=O)C(CC(=O)Nc2ccccc2F)S1)C1CCCCC1` (configuration not stated), the cell number change is -60.8%. Moreover, the AC50 under setting [1] was 25.9 µM [falling, partial curve].

For the compound `CCCCOCC(O)Cn1c(C)nc2ccccc21` (configuration not stated), the cell number change was -1.67%. In addition, the AC50 under setting [2] was 0.92 µM [rising, full curve, poor fit].

With `O=C(O)CC(NCc1ccco1)C(=O)OCCCl` (configuration not stated), the cell number change came out at 6.51%.

In the case of `COCCNC(=S)N1CCc2cc(OC)c(OC)cc2C1COc1ccc(F)cc1` (configuration not stated), the cell number change was -33.9%. For the same compound, under setting [2], the AC50 was 6.51 µM [falling, partial curve].

Regarding `N=C(c1cccc([N+](=O)[O-])c1)N1CCCCC1`, the cell number change was found to be 7.79%. Moreover, the AC50 under setting [2] was 0.103 µM [rising, full curve, poor fit].

As for `CCC(CO)Nc1ncnc2c1cnn2-c1ccc(Cl)cc1` (configuration not stated), the cell number change amounted to 19.5%.

For `COc1cc(/C=C2/SC(=S)N(CCC(=O)Nc3ccccc3)C2=O)cc(OC)c1OC`, the AC50 under setting [2] is 5.8 µM [falling, full curve].

Take `Cc1cccc(NC(=O)c2ccc(S(=O)(=O)N3CCCC3)cc2)c1C`: the cell number change was -4.2%.

Take `CCOc1ccccc1C(=O)N(Cc1ccc(C)o1)C1CCS(=O)(=O)C1` (configuration not stated): the cell number change is -25.7%. Also, under setting [2], the AC50 was 18.4 µM [falling, partial curve].

For the compound `Cc1ccccc1NC(=O)COc1ccc(Br)cc1C`, the cell number change worked out at 33.3%. The AC50 under setting [1] is 32.6 µM [rising, single point]. Moreover, under setting [2], the AC50 was 7.31 µM [rising, partial curve, poor fit].

With `Cc1nc(NCc2ccco2)[nH]c(=O)c1CCC(C)C`, under setting [2], the AC50 was 0.13 µM [falling, full curve, poor fit].

Take `COC(=O)NC1(C(F)(F)F)NC(=O)N(C2CCCCC2)C1=O` (configuration not stated): the cell number change was -5.49%. In addition, under setting [2], the AC50 is 9.2 µM [falling, partial curve, poor fit].

With `CCSc1nc(-c2ccc(OC)cc2)cc(-c2ccccc2)c1C#N`, the cell number change came out at 29.6%. Moreover, the concentration at half-maximal activity (AC50) under setting [1] was 3.66 µM [rising, full curve, poor fit]. The half-maximal activity concentration (AC50) under setting [2] is 18.4 µM [rising, partial curve].

`COC(=O)c1ccc(C(=O)OC)c(NC(=O)C2CCCO2)c1` (configuration not stated): the cell number change is -7.73%. Besides, the AC50 under setting [2] is 0.103 µM [rising, full curve, poor fit].

In the case of `Cc1cc(NC(=O)CSc2nnc(-c3cccnc3)n2N)no1`, the cell number change turned out to be 27.8%.

In the case of `COC(=O)c1ccc(CSc2nnc(N)s2)o1`, the cell number change was -4.63%.

Take `Cc1ccc(S(=O)(=O)NC(=O)C2CCCCC2)cc1`: the cell number change came to 17.2%. For the same compound, the AC50 under setting [2] was 1.3 µM [rising, full curve, poor fit].

Consider `CCN1CCN(c2cc(C)c3cc(NC(=S)N4CCOCC4)ccc3n2)CC1`, for which the cell number change is -32.8%. The concentration at half-maximal activity (AC50) under setting [1] was 1.16 µM [falling, full curve].

For the compound `O=C(O)c1cc2nccc(-c3ccc(F)cc3)n2n1`, the cell number change is -32.2%. Besides, the AC50 under setting [1] was 5.8 µM [falling, full curve, poor fit]. The AC50 under setting [2] is 8.2 µM [falling, partial curve].

Consider `COc1ccc(CNC(=O)Cc2csc(NC(=O)Nc3ccccc3OC)n2)cc1`, for which the cell number change amounted to 26.9%. Moreover, the AC50 under setting [2] is 2.06 µM [rising, full curve].

In the case of `CCOc1ccc(S(=O)(=O)Nc2cccc(C(=O)N3CCN(c4ccccc4O)CC3)c2)cc1`, the cell number change worked out at 2.54%. In addition, the half-maximal activity concentration (AC50) under setting [2] is 0.651 µM [falling, single point].

For `O=C(c1ccc2c(c1)N(Cc1ccc(F)cc1)CCS2)N1CCOCC1`, the cell number change is -16.7%.

As to `Cc1ncsc1CCOC(=O)C12CC3CC(CC(C3)C1)C2`, the cell number change was -0.799%. Moreover, the AC50 under setting [1] is 0.0517 µM [falling, full curve, poor fit]. Moreover, the AC50 under setting [2] is 7.31 µM [falling, partial curve, poor fit].

As to `CC(Sc1ncc(C#N)c(N)n1)C(=O)Nc1ccccc1` (configuration not stated), under setting [2], the concentration at half-maximal activity (AC50) was 29.1 µM [rising, single point].

As for `CC(=O)N1CCN(C(=O)CSc2nnc(C)n2-c2ccccc2)CC1`, the cell number change stood at 9.93%. The concentration at half-maximal activity (AC50) under setting [2] is 29.1 µM [rising, single point].

Regarding `CCn1nnc(NC(=O)c2cccnc2Cl)n1`, the cell number change is -104%. The AC50 under setting [1] was 29.1 µM [falling, single point].

For `CN(c1cccc(Cl)c1)S(=O)(=O)c1cccc(C(=O)Nc2nc3ccccc3[nH]2)c1`, the cell number change stood at 2.27%. Further, the half-maximal activity concentration (AC50) under setting [2] was 0.326 µM [rising, full curve, poor fit].

Regarding `COc1ccccc1N1CCN(S(=O)(=O)c2ccc3c4c(cccc24)C(=O)N3C)CC1`, under setting [2], the concentration at half-maximal activity (AC50) was 0.58 µM [rising, single point].

As for `CCOC(=O)c1cc2occc2n1CC(=O)Nc1ccc(OC)cc1OC`, the cell number change worked out at 50.2%. Further, the AC50 under setting [1] is 1.46 µM [rising, full curve].

In the case of `O=C(Nc1ccc(S(=O)(=O)N2CCCC2)cc1)c1ccc([N+](=O)[O-])cc1`, the cell number change stood at 8.06%. In addition, the AC50 under setting [2] is 29.1 µM [falling, single point].

Regarding `O=C(Nc1ccnn1C1CCN(Cc2c[nH]c3ccccc23)CC1)c1ccccc1`, under setting [2], the AC50 is 6.51 µM [rising, single point].

Turning to `CCOC(=O)C1(CCc2ccccc2)CCN(Cc2ccc(OC)cc2)CC1`, the cell number change is -20%.

On to `COc1ccc(CN(Cc2cc3cc(OC)c(OC)cc3[nH]c2=O)C(=O)NC2CCCCC2)cc1`, for which the cell number change worked out at 32.5%. Moreover, the concentration at half-maximal activity (AC50) under setting [1] is 1.3 µM [rising, full curve]. For the same compound, under setting [2], the concentration at half-maximal activity (AC50) was 1.3 µM [rising, full curve].

`C/C(=N/NC(=O)c1cccs1)c1cccc(NC(=O)C2CC2)c1`: the cell number change was -38.7%. Further, the AC50 under setting [1] was 36.6 µM [falling, partial curve, poor fit].

As for `O=c1[nH]c(NC2CCCCC2)nnc1Cc1ccccc1`, the cell number change was -37%. Also, under setting [1], the AC50 was 29.1 µM [falling, single point]. The concentration at half-maximal activity (AC50) under setting [2] was 29.1 µM [falling, single point].

As for `CCCCOC(=O)CSc1nnc(-c2cc(OC)c(OC)c(OC)c2)o1`, the cell number change is -6.96%. In addition, the AC50 under setting [2] is 29.1 µM [rising, single point].

For `O=C(Nc1ccc(-c2nnco2)cc1)c1ccccc1`, the cell number change worked out at 0.146%.

For `O=S(=O)(c1cnc(Cl)c(Cl)c1)N1CCN(c2ncccn2)CC1`, the cell number change stood at 0.661%. The AC50 under setting [1] was 6.51 µM [falling, single point].

`COc1cc(NC(=O)c2ccc3c(SCC(=O)O)c4c(nc3c2)CCC4)cc(OC)c1OC`: the cell number change was found to be 16.8%. Moreover, the AC50 under setting [2] was 0.58 µM [rising, single point].

For `COC(=O)c1ccc(CSc2cc(C)c3ccccc3n2)o1`, the cell number change turned out to be 38.9%.

For the compound `Cc1ccc(C(=O)OCC(=O)NCc2cccs2)cc1C`, the cell number change came out at 22%. Moreover, the concentration at half-maximal activity (AC50) under setting [2] is 29.1 µM [falling, single point].

Regarding `C=CCCO[C@@H]1O[C@@H](C)[C@H](O)C[C@H]1O`, the cell number change was -0.241%. Further, the AC50 under setting [2] was 6.51 µM [falling, partial curve, poor fit].

For `CCOC(=O)CNC(=O)c1ccccc1Br`, the cell number change was -8.91%. The AC50 under setting [2] was 4.11 µM [falling, full curve, poor fit].

As to `CC1=CN2C(=N)/C(=C/c3ccc(Sc4ccc(Cl)cc4)o3)C(=O)N=C2S1`, the cell number change worked out at 1.8%. For the same compound, the AC50 under setting [2] was 29.1 µM [falling, single point].

Take `S=c1[nH]nc(C2CCCCC2)n1/N=C/C(Cl)=C\c1ccccc1`: the cell number change is -50%. In addition, the half-maximal activity concentration (AC50) under setting [1] is 8.2 µM [falling, partial curve].

With `O=C(CSc1nnc(CNc2ccc(Cl)cc2)o1)Nc1nc2c(s1)CCCC2`, the cell number change is -1.12%. For the same compound, under setting [2], the AC50 was 1.3 µM [rising, full curve].

For `O=C(COC(=O)c1ccc2ccccc2n1)NC1CCCCC1`, the cell number change is -41.9%. In addition, the AC50 under setting [1] was 29.1 µM [falling, partial curve, poor fit].

`N#Cc1ccccc1/C=N/Nc1nc(-c2ccccc2)c2cc(Br)ccc2n1`: the cell number change amounted to 146%. In addition, the half-maximal activity concentration (AC50) under setting [1] is 29.1 µM [rising, single point]. Besides, the concentration at half-maximal activity (AC50) under setting [2] is 29.1 µM [rising, single point].

`CCOC(=O)CSc1nc(Nc2ccc3c(c2)OCO3)c2ccccc2n1`: the cell number change came to 10.7%. Further, the half-maximal activity concentration (AC50) under setting [2] is 1.64 µM [rising, partial curve].

With `C/C(=N/Nc1ccnc2cc(Cl)ccc12)c1ccc(O)cc1`, the cell number change is -57.2%. Besides, under setting [1], the half-maximal activity concentration (AC50) was 23.1 µM [falling, single point].

Turning to `COc1ccc(C(=O)Nc2ccccc2C(=O)N/N=C/c2ccccc2OC)cc1`, the cell number change amounted to 0.35%. Also, the AC50 under setting [2] was 29.1 µM [rising, single point].

As to `N=c1c2c(n(Cc3ccc([N+](=O)[O-])cc3)c3c1CCC3)CCCC2`, the cell number change is -0.528%. Besides, under setting [1], the AC50 was 0.461 µM [falling, partial curve, poor fit]. For the same compound, the half-maximal activity concentration (AC50) under setting [2] is 0.461 µM [falling, partial curve, poor fit].

Regarding `Cc1ccc(S(=O)(=O)N2CCN(C(=O)N3CCOCC3)C2C(C)C)cc1` (configuration not stated), the cell number change is -50.1%. For the same compound, under setting [1], the AC50 is 29.1 µM [falling, single point]. In addition, the concentration at half-maximal activity (AC50) under setting [2] was 14.6 µM [falling, partial curve, poor fit].

Take `CN1Cc2c(N3CCOCC3)nc(SCc3ccccc3)c(C#N)c2CC1(C)C`: the cell number change is -32.1%. Moreover, the concentration at half-maximal activity (AC50) under setting [1] was 32.6 µM [falling, single point].

With `O=c1cc(N2CCN(c3ccccc3)CC2)[nH]c(=O)n1C1CCCCC1`, the cell number change was -30.1%. Under setting [1], the AC50 is 9.2 µM [falling, partial curve, poor fit].

As a reminder, the AC50 is the concentration at which the activity in the assay is half-maximal.
